The campaign covered roughly 31,000 sequences. About 1,400 (4.5%) were called active.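 Rule for the calls: active = median seed-adjusted z-score above 1 or below -1; inactive = the rest.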 Some of the results follow.
Assay: Novel Modifiers of Survival Motor Neuron (SMN) Protein: Gene Identification via Genome-wide siRNA Screen;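 note: luminescence tracks full-length SMN protein made from the SMN2 reporter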
Settings: HEK293T SMN2-luciferase reporter, siRNA knockdown, 72 h; actives lie on both sides
In short: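 HEK293T cells stably expressing an SMN2 splicing/cDNA-luciferase reporter were reverse-transfected with a druggable-genome siRNA library and read by luminescence at 72 hours; hits defined by MAD score above 1.0 or below -1.0.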

Sequence | median seed-adjusted z-score
GGUAAAGUUUUACAGCAUUTT against MTCH2 | inactive: -0.168
GGAGUUUAAAGUUCAGGAATT against RAD1 | inactive: -0.71
AGUGUUCCCGAUUUACUAATT against OLIG1 | inactive: -0.387
AGAAUUUGCUGGACCAUUUTT against NPPA | inactive: -0.897
CAAUCUCUAGUCUAAAAGATT against PDLIM5 | inactive: 0.439
CGCAACUCUUUACACCGUATT against SAMHD1 | active: -1.33
GGAAUGCUAAGUUCCGAGATT against ARFGAP1 | inactive: 0.123
GAUCGUAUUCUGUAAGUGATT against BAI3 | inactive: 0.0657
GGAUGAACCUGAACCACGATT against ADAD1 | inactive: -0.0795
GCGGAAAAGCUGUAUCUAUTT against POLR3E | inactive: -0.55
GGAAACUUCUUCUACCUGATT against RSU1 | inactive: 0.176
AACCAUCCAUUGGAUCAAATT against RAE1 | inactive: 0.929
GGUGUAACCGAUUCACUAUTT against GCN1L1 | inactive: 0.0513
GGUAUGGAUUGAUGCCGCATT against SLC6A2 | inactive: 0
GCAUGUGCAUUUCCUAACUTT against ESRRB | inactive: -0.611
CGGUUACAUUUACUUCGUATT against SCN11A | inactive: 0.196
GGAUCUGCACAGUCUUCUATT against PSKH2 | inactive: 0.0439
GAGCUUUCAAGGAUAGGCUTT against HBG1 | inactive: -0.716
GCACGACCUUCAGCACAUUTT against ALX3 | inactive: -0.0707
GGAAUGUGCUGGUCGGAGATT against TIE1 | inactive: 0.0629
AACCGAUUCUAUGACAAUATT against SLC6A1 | inactive: -0.122
GCAAUUGUGGUAUUAGGAATT against NKIRAS1 | inactive: 0.113
GAAACAUAGCAUAAGGUUUTT against WRNIP1 | inactive: 0.00972
AGAGCAUCCUUCUAGCCUATT against MYO7B | inactive: -0.167
UGCAUAAUAUUGACCCGAATT against ARSB | inactive: 0.914
CAUUACUGUCUGUGGCUAATT against KCNK15 | inactive: -0.218
GGACCAAGCUGAUCGAUGATT against UBR4 | inactive: 0.602

Two entries picked at random from the list so far, as already listed:
Sequence | median seed-adjusted z-score
GGAAUGUGCUGGUCGGAGATT against TIE1 | inactive: 0.0629
GGUAUGGAUUGAUGCCGCATT against SLC6A2 | inactive: 0

(continued)

Sequence | median seed-adjusted z-score
CAUCCAAUAUUUUCCCGUATT against DNA2 | inactive: 0.0284
GGAUUCUACGAUUCCGGUUTT against NQO2 | inactive: -0.0723
GAAUGUUGUACAGAGCGUGTT against SNCG | inactive: -0.169
CAAGCGGAAAGAUAAAGUATT against ADARB2 | inactive: -0.249
CGAGAAGUGUUACUCUUUCTT against CRLF2 | inactive: 0.218
GAAGGGACUUUGUACUGAUTT against VPS11 | inactive: 0
CAGUCUUACUUCCACACCATT against KRT38 | inactive: 0.0884
GCACCAUCAUCCUAACAUATT against SLC17A2 | inactive: 0.141
GCAAUAUCUAUUCACCCAATT against BCL6 | inactive: -0.352
CCAGUCACUGCAUAACAUUTT against PSMD9 | inactive: 0.266
GAAGAAGCUUUGAUAAAGATT against KLHL3 | inactive: -0.237
CUGUGGCUCUUCUCCAACATT against RTN4RL2 | inactive: -0.168
CUUUGACAGUGUUCGUGAATT against SGOL2 | inactive: 0.114
GGAUUCCCUUCAAGAUAUATT against NUCB2 | inactive: 0.45
CAGAGCCUUUGGGAAUAAATT against PTGER1 | inactive: 0.383
GCUGCUUAAUCUUCGGCAATT against PLCB1 | inactive: 0.0735
GAACCGUCCCAAUCGGUUATT against VCP | inactive: -0.808
GCGCGUUGGUACAAUGGAATT against GOT1 | inactive: 0.0103
GGUGUACUAUUCUCCAGCATT against AKAP1 | inactive: 0.182
GGCUAUGAUCAAAUCCUUATT against SLC17A4 | inactive: 0.262
CAAAGAUGGACAAGCCUUATT against INSL4 | inactive: 0.399
CAGAAUAUCCUGAGAAAGATT against AIFM2 | inactive: -0.106
CCUGGUAUUUAGAACAUAATT against ACOXL | inactive: 0.53
CCGCCUUUGUGAUGGAGCATT against FN3K | inactive: -0.508
CCAGGACAUUCGAAAGCGATT against TRAF4 | active: -1.16
CGACAUCGAAAGUAAAUUUTT against LPL | inactive: 0.389
GCAGGAUUUUCUAUCGAAATT against ITIH2 | inactive: 0.262

— PubChem BioAssay AID1347426 (Functional Genomics Laboratory (NCATS/FGL), 2020)
